Test results reported in PubChem BioAssay AID590 (National Center for Advancing Translational Sciences (NCATS), 2007).
Out of some 59,000 compounds screened, about 6,500 (11%) were called active. Inconclusive means that the source gave no clear call. Such entries were picked first, then a sample of the others. Rule as the data show it: active = max dye-equivalent concentration above about 10 nM; inconclusive = mostly about 1.1 nM to 9.6 nM; inactive = weaker than that.

Assay: qHTS Assay for Spectroscopic Profiling in A350 Spectral Region
Details: Compound autofluorescence, 340/450 nm, Alexa 350 dye-equivalents; stronger effect = higher value

Question: Which max dye-equivalent concentration does the source give for `Cc1onc(-c2ccccc2)c1C(=O)Nc1ccc(-c2nnc3n2CCCCC3)cc1` here?
Answer: Its max dye-equivalent concentration is inconclusive: 1.2 nM.

Question: With `O=C(CCS(=O)(=O)c1ccc(Br)cc1)N1CCN(c2ccccc2F)CC1` as the compound, how does the max dye-equivalent concentration read?
Answer: The max dye-equivalent concentration was active: 15 nM.

Question: With `O=C1CCCc2nc3nc4ccccc4n3cc21` as the compound, how does the max dye-equivalent concentration read?
Answer: Its max dye-equivalent concentration is inconclusive: 2.3 nM.

Question: Which max dye-equivalent concentration does the source give for `Cn1c(-c2ccc(N)cc2)nc2ccccc21` here?
Answer: The max dye-equivalent concentration was inconclusive: 5 nM.

Question: For `CCCCNc1nc2c(c(=O)n(C)c(=O)n2C)n1Cc1cccc(OC)c1`, which max dye-equivalent concentration is on record?
Answer: Its max dye-equivalent concentration is inconclusive: 8.3 nM.

Question: Which max dye-equivalent concentration does the source give for `CCCOc1ccc(/C(O)=C2\C(=O)C(=O)N(CCCOC)C23C(=O)N(C)c2ccccc23)cc1` (centres undefined) here?
Answer: Its max dye-equivalent concentration is inconclusive: 2.7 nM.

Question: For `CC(C)CCn1cnc2c([nH]c3cccc(Cl)c32)c1=O`, which max dye-equivalent concentration is on record?
Answer: Its max dye-equivalent concentration is inconclusive: 1.1 nM.

Question: Which max dye-equivalent concentration does the source give for `COc1ccccc1-c1nc(C#N)c(N2CCN(c3ccccc3)CC2)o1` here?
Answer: The max dye-equivalent concentration was active: 27 nM.

Question: Which max dye-equivalent concentration does the source give for `CCOC(=O)C1=C(c2ccccc2)NC(SCC(=O)Nc2cccc(C)c2)=C(C#N)C1c1ccco1` (centres undefined) here?
Answer: The max dye-equivalent concentration was active: 27 nM.

Question: With `CC1(C)S[C@@H]2[C@@H](NC(=O)[C@@H](N)c3ccccc3)C(=O)N2[C@H]1C(=O)O` as the compound, how does the max dye-equivalent concentration read?
Answer: The max dye-equivalent concentration was active: 44 nM.

Question: With `CC(C)(C)NC(=O)C(c1ccccc1)N(Cc1ccco1)C(=O)c1csnn1` (centres undefined) as the compound, how does the max dye-equivalent concentration read?
Answer: Its max dye-equivalent concentration is inconclusive: 3.4 nM.

Question: Which max dye-equivalent concentration does the source give for `CCn1c(=S)sc2c(=O)[nH]c(C)nc21` here?
Answer: The max dye-equivalent concentration was inconclusive: 1.2 nM.

Question: With `CCc1cccc2c3c([nH]c12)C(CC)(CC(=O)O)OCC3` (centres undefined) as the compound, how does the max dye-equivalent concentration read?
Answer: Its max dye-equivalent concentration is inconclusive: 1.3 nM.

Question: For `Cn1c(=O)c(-c2ccc(F)cc2)nc2cncnc21`, which max dye-equivalent concentration is on record?
Answer: Its max dye-equivalent concentration is inconclusive: 2.3 nM.

Question: With `COC(=O)C1CCN(C(=O)COC(=O)CC(NC(N)=O)c2ccc(Cl)cc2)CC1` (centres undefined) as the compound, how does the max dye-equivalent concentration read?
Answer: The max dye-equivalent concentration was “inactive”.

Question: Which max dye-equivalent concentration does the source give for `c1ccc2oc(CCc3nc4ccccc4o3)nc2c1` here?
Answer: Its max dye-equivalent concentration is inconclusive: 6.4 nM.

Question: With `O=C1CC(N2CCOCC2)C(=O)N1CCN1C(=O)CC(N2CCOCC2)C1=O` (centres undefined) as the compound, how does the max dye-equivalent concentration read?
Answer: The max dye-equivalent concentration was inconclusive: 2.5 nM.

Question: With `O=C(CN1CCN(S(=O)(=O)/C=C/c2ccccc2)CC1)NC(=O)NCc1ccco1` as the compound, how does the max dye-equivalent concentration read?
Answer: Its max dye-equivalent concentration is “inactive”.

Question: For `CC1CCN(c2nc3ccccc3nc2C(C#N)C(=O)OC2CCCCC2)CC1` (centres undefined), which max dye-equivalent concentration is on record?
Answer: The max dye-equivalent concentration was “inactive”.

Question: Which max dye-equivalent concentration does the source give for `CC(c1ccco1)N(C(=O)COc1ccc(Cl)cc1)c1ccccn1` (centres undefined) here?
Answer: The max dye-equivalent concentration was inconclusive: 8.3 nM.

Question: For `O=C(Nc1ccccc1-c1nc2ccccc2o1)c1ccc2c(c1)OCCO2`, which max dye-equivalent concentration is on record?
Answer: The max dye-equivalent concentration was active: 210 nM.

Question: For `C=CCn1c(SCC(=O)Nc2c(C)cccc2C)nnc1-c1cnccn1`, which max dye-equivalent concentration is on record?
Answer: The max dye-equivalent concentration was inconclusive: 1.2 nM.

Question: Which max dye-equivalent concentration does the source give for `CCOc1ccc(CNC(=O)C2CCCN(S(C)(=O)=O)C2)cc1OC` (centres undefined) here?
Answer: Its max dye-equivalent concentration is inconclusive: 1.7 nM.

Question: Which max dye-equivalent concentration does the source give for `OCCN(CC(O)Cn1ccc2ccccc21)CC(O)Cn1ccc2ccccc21` (centres undefined) here?
Answer: The max dye-equivalent concentration was inconclusive: 5.3 nM.
